Assay results: PubChem BioAssay AID2417 (National Center for Advancing Translational Sciences (NCATS), 2010)
About 4,300 (3.1%) of roughly 140,000 compounds were called active. The shares of active, inactive and inconclusive entries below differ from those in the screen.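 How the source made its calls: active means readout at or below -70, meaning at least 70% loss of cells showing the perinucleolar compartment, a nuclear body marking cancer cells; inconclusive means readout between -30 and a set limit; inactive means the rest.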

Assay: High Content Assay for Compounds that inhibit the Assembly of the Perinucleolar Compartment;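 further: plate controls were DMSO wells for no effect and camptothecin positive control wells for full effect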
Conditions: PC3M PTB-GFP, PNC prevalence imaging, 16 h; at 10 µM; stronger effect = lower value
Outline: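 PC3M cells stably expressing PTB-GFP, 750–1000 cells/well, treated 16 h at 37 °C with compound (23 nl of library stock), in duplicate. After paraformaldehyde fixation and Hoechst stain, imaged at 20x; PNC prevalence scored by image analysis.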

| Structure (SMILES) | activity change (PNC), negative = inhibition |
| --- | --- |
| COc1ccc(C)cc1NS(=O)(=O)c1cn(C)c(=O)n(C)c1=O | inconclusive: -42.4% |
| Nc1nnc(CCCCc2cccs2)o1 | inconclusive: -48.7% |
| CCOC(=O)c1sc(-c2ccccc2)cc1NC(=O)CSc1nnnn1C | inconclusive: -55% |
| O=C(Nc1ccc2c(c1)OCCO2)NC1CCCCC1 | inconclusive: -41.7% |
| Cn1cc(C(=O)N/N=C/C2=C(N3CCOCC3)C(=C\c3ccccc3)/CC2)ccc1=O | inconclusive: -47.9% |
| O=C(NNc1cccc(Cl)n1)Nc1ccccc1 | inactive: -2.38% |
| COc1cccc2c1C(=O)c1c(O)c3c(c(O)c1C2=O)C[C@@](O)(C(=O)CO)C[C@@H]3O[C@H]1C[C@H](N)[C@H](O)[C@H](C)O1 | active: -115% |
| Cc1c(C(=O)O)oc2ccc(S(=O)(=O)NC3CCCCCCC3)cc12 | active: -113% |
| COC(=O)N(NC(=O)C(O)(CCC(C)C)CCC(C)C)c1ccccc1 | inconclusive: -52.9% |
| CC(C)NC(=O)CCNC(=O)c1ccc(F)cc1 | inactive: 8.7% |
| Cc1ccc2c(c1)[nH]c1c(N3CCN(Cc4ccc5c(c4)OCO5)CC3)ncnc12 | inconclusive: -55.3% |
| CC(C)(C)Cc1nc(-c2ccc(Cl)cc2)no1 | inactive: -7.99% |
| CCOC(=O)c1ccc(NC(=O)CNC(=O)C23CC4CC(CC(C4)C2)C3)cc1 | inactive: 16.8% |
| O=C1C(=Cc2cccs2)C(=O)c2ccccc21 | inconclusive: -51.4% |
| O=C(c1cnn2c1NC(c1ccco1)CC2C(F)(F)F)N1CCN(c2cccc(Cl)c2)CC1 (stereo not given) | inactive: -22.1% |
| COc1cc(NC(=O)CN2CCCCC2)c(C)cc1[N+](=O)[O-] | inconclusive: -42.6% |
| COC(=O)Nc1snnc1C | inactive: -18.9% |
| O=C(O)c1cc(S(=O)(=O)N2CCOCC2)ccc1N1CCOCC1 | inconclusive: -45% |
| O=C(Nc1ccccc1C(F)(F)F)C1CC(=O)N(c2ccccc2F)C1 (stereo not given) | active: -80.8% |
| Cn1c(SCC(=O)NC(C)(C)C)nnc1-c1cccc(NC(=O)c2ccccc2F)c1 | inactive: -13.4% |
| CCCCCCn1c2c(c(=N)c3c1CCC3)CCC2 | inconclusive: -43.1% |
| Cc1ccc(S(=O)(=O)NCC(=O)N(CC(=O)NC(C)(C)C)Cc2cccs2)cc1 | inconclusive: -34.7% |
| C=CCn1cc(-c2ccccc2)cc(C#N)c1=O | inconclusive: -34.6% |

| Structure (SMILES) | activity change (PNC), negative = inhibition |
| --- | --- |
| COc1ccc(OC)c(CNC(=O)C2CCN(C(=O)N(C)C)CC2)c1 | inconclusive: -62.6% |
| CSc1nc2ccccc2c(=O)n1N | inconclusive: -37.7% |
| COc1cccc(C(=O)Nc2ccc(NC(=O)C3CC3)cn2)c1 | inactive: 23.3% |
| COc1ccc(CCNC(=O)Cn2nc([N+](=O)[O-])c(Br)c2C)cc1OC | inconclusive: -68% |
| Cc1c(CCOC(=O)CC23CC4CC(CC(C4)C2)C3)sc[n+]1CC(=O)c1ccc(Br)cc1 | inactive: 23% |
| Cc1ccc(NC(=O)Cn2c(=O)cnc3ccccc32)cc1S(=O)(=O)N(C)C | inconclusive: -33% |
| CC1Cc2ccccc2N1C(=O)C1CCCN1S(=O)(=O)c1ccc(Cl)cc1 (stereo not given) | inconclusive: -53.7% |
| CC(=O)c1cc(OC(=O)N2CCOCC2)ccc1OC(=O)N1CCOCC1 | inconclusive: -49% |
| CC(C)(C)c1cc(NC(=O)CSc2nnc(N)s2)n(-c2ccccc2)n1 | inconclusive: -30.9% |
| Cc1ccccc1/C=C/c1nc2ccccc2c(=O)n1CCc1ccccc1 | inactive: 8.64% |
| CN(C)c1ccc(NC(=O)Nc2cccc(Cl)c2)cc1 | inactive: -14.2% |
| CC(O/N=C\c1ccccc1O)C(=O)Nc1ccccc1C(=O)N1CCOCC1 (stereo not given) | inconclusive: -47.8% |
| C=C(C)C1CC=C(C)/C(=N\NC(=S)Nc2ccc(C)cc2)C1 (stereo not given) | inactive: 4.4% |
| Cc1ccc(SCC(=O)Nc2ccc(S(=O)(=O)Nc3nccs3)cc2)cc1 | inconclusive: -31% |
| CCOC(=O)C1=C(C)NC2=C(C(=O)CCC2)C1c1cccs1 (stereo not given) | inconclusive: -41.3% |
| OC(CN1CCOCC1)CN1CCOCC1 | inactive: -23.5% |
| c1ccc2c(c1)[nH]c1c(N3CCOCC3)ncnc12 | active: -119% |
| COc1ccc(/C=C2\COc3ccccc3C2=O)cc1OC | inconclusive: -56.1% |
| O=C(c1cccs1)N1CCC2(O)CCCCC2C1c1ccc(F)cc1 (stereo not given) | inconclusive: -57.5% |
| CCCn1c(SC(C)C(=O)O)nc2ccccc21 (stereo not given) | inconclusive: -57.2% |
| CN1CCN(C(=O)C2CC(=O)N(c3ccc(F)c(Cl)c3)C2)CC1 (stereo not given) | inconclusive: -30.9% |
| COC(=O)C1=C(C)NC(C)=C(C(=O)OC)C1c1ccc(N(C)C)cc1 | inconclusive: -42.6% |

Some of these compounds in order of length of the SMILES, smallest number first.

| Structure (SMILES) | activity change (PNC), negative = inhibition |
| --- | --- |
| O=C(Nc1ccc2c(c1)OCCO2)NC1CCCCC1 | inconclusive: -41.7% |
| O=C(Nc1ccccc1C(F)(F)F)C1CC(=O)N(c2ccccc2F)C1 (stereo not given) | active: -80.8% |
| Cc1ccc2c(c1)[nH]c1c(N3CCN(Cc4ccc5c(c4)OCO5)CC3)ncnc12 | inconclusive: -55.3% |
